Source: PubChem BioAssay AID652053 (Broad Institute, 2013)
The whole screen tested about 1,300 compounds, of which about 930 (72%) were called active. So high a share suggests a set chosen from earlier hits. The shares of active, inactive and inconclusive entries below differ from those in the screen.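 The calls were made as follows: active = fitted curve reaches 40% activation signal increase at or below the top valid tested concentration in every replicate test; inconclusive = replicate tests disagree in their calls; inactive = all replicate tests inactive, including effects opposite the expected signal rise.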

Experiment: miR-122 inhibitors in Huh7 reporter cells, dose response, cell-based, Huh7 psiCHECK-miR122, Renilla luciferase, cherry-pick (AID 652053)
Details: 48 h; at 35 µM (top of the series)

Activation (miR-122 inhibition), inactive:
CN(C)S(=O)(=O)c1ccc2c(c1)nc(CCC(=O)NCC1CCCCC1)n2C 6.44%, O=C(c1ccc(F)cc1)N1C[C@H]2[C@@H](c3ccccc31)[C@H](CO)N2C(=O)c1ccc(F)cc1 12.4%, CC(=O)N1[C@H](CO)[C@@H](c2ccc(C3=CCCCC3)cc2)[C@@H]1CNC(=O)CN(C)C 2.05%, CC(C)c1cc(C(=O)N/N=C/C(Br)=C/c2ccccc2)n[nH]1 38%

Activation (miR-122 inhibition), inconclusive:
CN1C(=O)c2cc(NC(=O)Cc3cccs3)ccc2OC[C@@H]2O[C@H](CC(=O)NCC3CCCCC3)CC[C@@H]21 9.04%, CCOC(=O)Nc1cc2c(c(N)n1)N=C(c1ccccc1)CN2 4.19%, CCOc1ccc(S(=O)(=O)Nc2cc(C)ccn2)c2ccccc12 -0.804%, Cc1ccc(S(=O)(=O)c2c(N)n(Cc3ccco3)c3nc4ccccc4nc23)cc1 -7.11%, O=S(=O)(Nc1nc2c(s1)CCCC2)c1ccc(F)cc1 -3.6%
